{
  "source": "PubChem BioAssay AID540276",
  "about": "(National Center for Advancing Translational Sciences (NCATS), 2011)",
  "note": "Hit rate of the full screen: of about 300,000 compounds, about 5,400 (1.8%) were called active. Inconclusive means that the source gave no clear call. Such entries were picked first, then a sample of the others. The call rests on the fitted dose curve; tested in HEK293 cells. Potencies beside an inconclusive call are fits to weak or partial responses and may not hold up. Potency means the concentration at half of the fitted maximal effect.",
  "data": [
    {"experiment": "qHTS for inhibitors of binding or entry into cells for Marburg Virus", "conditions": "Marburg virus pseudotyped entry inhibition, cell reporter; series mostly up to 37.8 µM", "values": [
      {"smiles": "O=C(O)C1CCCN(C(=O)c2cccc3ccccc23)C1", "note": "(stereo unspecified)", "Potency": "inactive"},
      {"smiles": "O=C(CCCNS(=O)(=O)c1cccs1)N1CCN(c2cccc(Cl)c2)CC1", "Potency": "inconclusive: 16.4 µM [inhibitor, partial curve, poor fit]"},
      {"smiles": "COc1ccc(CCNC(=O)CSc2nnc(C(C)N(C)C)n2Cc2ccccc2)cc1OC", "note": "(stereo unspecified)", "Potency": "inactive"},
      {"smiles": "Cc1ccc(C(=O)OCC(=O)NC2CCCCC2)o1", "Potency": "inactive"},
      {"smiles": "O=C(CSc1ccc2ccccc2n1)Nc1ccc(N2CCOCC2)cc1", "Potency": "inactive"},
      {"smiles": "Cc1ccc2cccc(Oc3ccc([N+](=O)[O-])cc3[N+](=O)[O-])c2n1", "Potency": "inconclusive: 5.62 µM [inhibitor, single point]"},
      {"smiles": "CCOC(=O)c1cccc(-n2c(C)nc3ccccc3c2=O)c1", "Potency": "inactive"},
      {"smiles": "O=C(O)c1ccc2nc(-c3ccccc3)c(-c3ccccc3)nc2c1", "Potency": "inactive"},
      {"smiles": "O=C(CCN1C(=O)/C(=C/c2ccc3c(c2)OCO3)SC1=S)Nc1ccc(C(=O)O)cc1", "Potency": "inconclusive: 31.6 µM [activator, single point]"},
      {"smiles": "CCOC(=O)C1CCCN(C(=O)Cn2ncc3c(C)n(Cc4ccccc4F)c(C)c3c2=O)C1", "note": "(stereo unspecified)", "Potency": "inactive"},
      {"smiles": "C/C(=N/NC(=O)c1nnn(-c2nonc2N)c1-c1ccccc1)c1ccncc1", "Potency": "inactive"},
      {"smiles": "Cc1nnc(NC(=O)c2ccc(S(=O)(=O)N3CC(C)CC(C)C3)cc2)o1", "note": "(stereo unspecified)", "Potency": "inconclusive: 1 µM [inhibitor, full curve, poor fit]"},
      {"smiles": "O=C(/C=C/c1ccccc1)c1ccc2ccccc2c1", "Potency": "inconclusive: 35.5 µM [inhibitor, single point]"},
      {"smiles": "COc1ccc(CN=CC2=C(O)CC(C)(C)CC2=O)cc1", "Potency": "inconclusive: 0.651 µM [inhibitor, full curve]"},
      {"smiles": "CC(=O)Nc1ccccc1-c1nc2ccccc2n(CC(=O)c2ccc(Br)cc2)c1=O", "Potency": "inactive"},
      {"smiles": "COc1ccc(NC(C#N)c2ccc(OC)cc2)cc1", "note": "(stereo unspecified)", "Potency": "inconclusive: 32.6 µM [inhibitor, partial curve, poor fit]"},
      {"smiles": "CCOc1ccc(C(=O)CCC(=O)Nc2ccc(C)c(S(=O)(=O)N3CCCCC3)c2)cc1", "Potency": "inconclusive: 11.2 µM [inhibitor, partial curve, poor fit]"},
      {"smiles": "CCN(Cc1ccccc1)S(=O)(=O)c1ccc(C(=O)N(CCCN(C)C)c2nc3c(F)cccc3s2)cc1", "Potency": "active: 8.91 µM"},
      {"smiles": "O=c1c2ccccc2cnn1Cc1n[nH]c(=S)n1-c1ccc(Cl)cc1", "Potency": "inconclusive: 0.355 µM [activator, partial curve, poor fit]"},
      {"smiles": "C/C(=N\\NC(=O)CCc1c[nH]c2ccccc12)c1cccc([N+](=O)[O-])c1", "Potency": "inconclusive: 2 µM [activator, partial curve, poor fit]"},
      {"smiles": "Cn1c(NC(=O)/C=C/c2ccc(Cl)c(Cl)c2)cc(=O)n(C)c1=O", "Potency": "inconclusive: 2.24 µM [activator, partial curve, poor fit]"},
      {"smiles": "CCCC12CN3CCN(CC(C3)/C1=N\\NC(=O)c1ccc(C(C)(C)C)cc1)C2", "Potency": "inconclusive: 0.501 µM [activator, partial curve, poor fit]"},
      {"smiles": "CCN(CC)S(=O)(=O)c1cccc(C(=O)Nc2cc3oc4ccccc4c3cc2OC)c1", "Potency": "inconclusive: 7.94 µM [inhibitor, partial curve, poor fit]"},
      {"smiles": "N#Cc1ccsc1NC(=O)CCc1ccccc1", "Potency": "inconclusive: 35.5 µM [inhibitor, single point]"},
      {"smiles": "O=S(=O)(c1ccc(F)cc1)c1nc(-c2ccco2)oc1Nc1ccccc1", "Potency": "inactive"},
      {"smiles": "Cc1ccccc1-c1cn(-c2ccccc2)c(=S)[nH]1", "Potency": "inactive"},
      {"smiles": "O=C(Nc1ccc(OC(F)(F)F)cc1)c1cccc(-n2cnnn2)c1", "Potency": "inactive"},
      {"smiles": "CCOc1ccc(N(CC(=O)Nc2cccnc2)S(C)(=O)=O)cc1", "Potency": "inactive"},
      {"smiles": "N#Cc1ccccc1OCC(=O)Nc1ccc(S(=O)(=O)N2CCOCC2)cc1", "Potency": "inactive"},
      {"smiles": "CCCCOc1ccc(C(=O)Nc2ccc(N3CCN(C)CC3)cc2)cc1", "Potency": "inactive"},
      {"smiles": "Cn1c(-c2ccc(=O)[nH]c2)nc2ccccc21", "Potency": "inactive"},
      {"smiles": "N#Cc1ccc(-c2ccc(F)cc2)nc1SCC(=O)Nc1sc2c(c1C#N)CCC2", "Potency": "inconclusive: 7.3 µM [inhibitor, partial curve]"},
      {"smiles": "COc1ccc(S(=O)(=O)Nc2cc([N+](=O)[O-])ccc2OC)cc1", "Potency": "inconclusive: 16.4 µM [inhibitor, single point]"},
      {"smiles": "Cc1ccc(NS(=O)(=O)c2ccc(OCC(=O)NCc3ccncc3)cc2)cc1", "Potency": "inconclusive: 0.112 µM [inhibitor, full curve, poor fit]"},
      {"smiles": "Cc1noc(C)c1COc1ccc(C(=O)Nc2ccccn2)cc1", "Potency": "inactive"},
      {"smiles": "COc1ccc(/C=N/Nc2nc3ccccc3s2)cc1O", "Potency": "inconclusive: 25.1 µM [inhibitor, single point]"},
      {"smiles": "COc1ccc(Cl)cc1N1C(=O)CC(N2CCN(S(=O)(=O)c3ccccc3F)CC2)C1=O", "note": "(stereo unspecified)", "Potency": "inconclusive: 5.62 µM [inhibitor, single point]"},
      {"smiles": "CC(=O)N(C)c1ccc(NC(=O)Nc2ccccc2C)cc1", "Potency": "inconclusive: 3.98 µM [activator, single point]"},
      {"smiles": "O=C(Nc1ccc(Cl)cc1)/C(=C/c1cccc(O)c1)c1nc2ccccc2s1", "Potency": "inconclusive: 15.8 µM [inhibitor, partial curve, poor fit]"},
      {"smiles": "COC(=O)C(Cc1ccccc1)NC(=O)CCc1c[nH]c2ccccc12", "note": "(stereo unspecified)", "Potency": "inconclusive: 0.794 µM [activator, full curve, poor fit]"},
      {"smiles": "O=C(Nc1ccccc1N1CCCCC1)c1ncoc1-c1ccc(F)cc1", "Potency": "inconclusive: 22.4 µM [activator, single point]"},
      {"smiles": "CCOc1ccc(NC(=O)N(Cc2c[nH]c3ccccc23)C2CCCCCC2)cc1", "Potency": "inconclusive: 35.5 µM [activator, single point]"},
      {"smiles": "Cc1ccc(-n2nc(C(=O)O)c3ccccc3c2=O)cc1C", "Potency": "inconclusive: 3.16 µM [activator, partial curve]"},
      {"smiles": "CC(=O)Nc1cccc(OC(=O)c2ccoc2C)c1", "Potency": "inactive"},
      {"smiles": "CSc1ncc(/C=C2/C(=O)NC(=O)N(C)C2=O)cn1", "Potency": "inactive"},
      {"smiles": "Cc1noc(C)c1COC(=O)C1CCN(S(=O)(=O)c2ccc(F)cc2)CC1", "Potency": "inactive"}
    ]}
  ]
}
